# Microarray screen: hit calls

Targets, with sequences 5′ to 3′:
T1: SAM-II riboswitch RNA pseudoknot, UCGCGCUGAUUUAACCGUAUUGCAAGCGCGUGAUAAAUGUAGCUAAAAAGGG. About 21,000 compounds screened, about 200 hits.
T2: PreQ1 riboswitch RNA pseudoknot, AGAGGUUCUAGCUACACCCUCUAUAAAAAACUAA. From B. subtilis. About 24,000 compounds screened, about 170 hits.
T3: TPP riboswitch RNA three-way junction, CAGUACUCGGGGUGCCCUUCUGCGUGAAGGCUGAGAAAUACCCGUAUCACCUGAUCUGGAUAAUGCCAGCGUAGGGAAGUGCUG. About 24,000 compounds screened, about 160 hits.

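Compounds were printed on reactive glass slides in duplicate spots, a dye-labelled oligonucleotide was laid over them, and the fluorescence left after washing was read. For the PreQ1, TPP and SAM-II riboswitches the laboratory earlier reported (doi:10.1038/s41467-019-09493-3) 1 µM RNA, 2 h, and a rule that included a mean Z-score above 3 (spot signal-to-noise against the whole library), a score well above that on a control array, and duplicate spots agreeing (coefficient of variation under 100). The data file gives only the calls; its cut-offs may differ, and compounds hitting several targets are kept. These are primary screening calls, not affinities; a compound without a hit may have attached poorly or may still bind in solution.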
“hit” means called a hit, “no hit” means screened and not called a hit.
The compounds are a random part of those screened.
A target missing from an entry has no call listed here.
A dash means that no call is listed here.

COc1ccc(C2CC(=O)C=C(NCCc3c[nH]cn3)C2)cc1 (centres unmarked) was scored T1: no hit; T2: no hit; T3: no hit. For Cc1nc2ccccc2c(=O)n1CCNc1cccc2ccccc12 the calls were T1: no hit; T2: no hit; T3: no hit. N#CC1=C(N)OC2=C(C(=O)CC(c3ccccc3)C2)C1c1ccccc1C(F)(F)F (centres unmarked) was scored T1: no hit; T2: no hit; T3: no hit. O=C1C2C3C=CC(O3)C2C(=O)N1Nc1ccccc1 (centres unmarked) was scored T1: no hit; T2: no hit; T3: no hit.

Calls for O=c1cccc2n1CC1CC2CN(c2nc(NCC3CCCO3)nc(N3CCOCC3)n2)C1 (centres unmarked) are T1: no hit; T2: no hit; T3: no hit. With CCOC(=O)c1ccc2nc(C(F)(F)F)nc(NCCCN3CCOCC3)c2c1 the screen gave T1: no hit; T2: no hit; T3: no hit. O=C1CN(c2ccc(C(=O)N(CCO)Cc3ccccc3F)cc2)C(=O)N1 was scored T1: no hit; T2: no hit; T3: no hit. With CC(C)c1cc(NCc2ccc(F)cc2)n2nc(-c3cccnc3)nc2n1 the screen gave T2: no hit; T3: no hit.

For COc1ccc(CNCCCSc2nnnn2C)cc1OC.Cl the calls were T1: no hit; T2: no hit; T3: no hit. Calls for Nc1nnc(SCC(=O)N2C[C@@H](C(=O)O)[C@H](c3ccc(F)cc3)C2)s1 are T1: no hit; T2: no hit; T3: no hit. Cc1ccc(NC(=O)Cn2nnc(C(=O)NCc3ccc(F)cc3)c2N)cc1C was scored T1: no hit; T2: no hit; T3: no hit. For Cc1ccc(S(=O)(=O)[C@H]2CS(=O)(=O)C[C@@H]2NCc2ccco2)cc1 the calls were T2: no hit; T3: no hit.

With Cc1cc(N2CCC(NCc3ccc4c(c3)CCCO4)CC2)nc(N)n1 the screen gave T1: no hit; T2: no hit; T3: no hit. Cc1cc(NC2CCCC2)n2ncc(-c3ccc(F)cc3)c2n1 was scored T2: no hit; T3: no hit. For Cc1nnc(CN2C[C@H](C3CC3)[C@@H](N)C2)s1 the calls were T1: no hit; T2: no hit; T3: no hit. With NC(=O)C1=C(NCCc2ccccc2)c2ccccc2S1(=O)=O the screen gave T2: no hit; T3: no hit.

For N#Cc1c(NC(=O)c2cccc3ccccc23)sc2c1CCCC2 the calls were T1: no hit; T2: no hit; T3: no hit. COc1ccc(CNCCC2(C(C)C)CCOC(C)(C)C2)cc1OC (centres unmarked) was scored T1: no hit; T2: no hit; T3: no hit. With CNc1ccc(SC#N)cc1.Cl the screen gave T1: no hit; T2: no hit; T3: no hit. NCCC1CCCN(Cc2cccn2S(=O)(=O)c2ccccc2)C1 (centres unmarked) was scored T1: no hit; T2: no hit; T3: no hit.

With COc1cccc2nc3cc(C)c(C)cc3nc12 the screen gave T1: no hit; T2: no hit; T3: no hit. For Cc1cc2c(c(=O)o1)C(c1ccc3c(c1)OCO3)C(C#N)=C(N)O2 (centres unmarked) the calls were T1: no hit; T2: no hit; T3: no hit. For COCc1c(C(=O)N2CCNCC2C(=O)Nc2ccc(C)nc2)noc1C (centres unmarked) the calls were T1: no hit; T2: no hit; T3: no hit. Calls for OC[C@H](Cc1ccccc1)Nc1nc(Oc2ccc3c(c2)CCC3)nc2c1ncn2Cc1ccc(-c2ccccc2)cc1 are T1: no hit; T2: no hit; T3: no hit.

Calls for CC(=O)C1(N)CCCCC1 are T1: no hit; T2: no hit; T3: no hit. Calls for CC1CC(Nc2ccccc2)c2ccccc2N1C(=O)C(C)(C)C (centres unmarked) are T1: no hit; T2: no hit; T3: no hit. Calls for COCCn1c(N2CCN(CCO)CC2)nc2c1c(=O)[nH]c(=O)n2C are T2: no hit; T3: no hit. Cc1[nH]nc(CCC(=O)N2CC[C@@H](N3CCOCC3)[C@H](O)C2)c1C was scored T1: no hit; T2: no hit; T3: no hit.

For CC(C)[C@H]1CN(Cc2cc(C3CC3)on2)C[C@@H]1NC(=O)CO the calls were T1: no hit; T2: no hit; T3: no hit. With Cc1cc(C)cc(Nc2cc(C)nc3nc(C(F)(F)F)nn23)c1 the screen gave T2: no hit; T3: no hit. For COc1nc2ccccc2cc1-c1cnccc1N the calls were T1: no hit; T2: no hit; T3: no hit. COc1ccccc1OCC(O)Cn1c(=N)n(CCN2CCOCC2)c2ccccc21 (centres unmarked) was scored T1: no hit; T2: no hit; T3: no hit.

Cl.OCCN(Cc1ccccc1)CC(O)COc1c(F)cc(Br)cc1F (centres unmarked) was scored T1: no hit; T2: no hit; T3: no hit. Cn1c(=O)[nH]cc(CC(=O)N2CCCC(Nc3ccc(F)c(F)c3)C2)c1=O (centres unmarked) was scored T1: no hit; T2: no hit; T3: no hit. Nc1nc2c(s1)C(c1ccccc1)CC(=O)N2 (centres unmarked) was scored T1: no hit; T2: no hit; T3: no hit.

Some entries from above, unchanged:

compound	T1	T2	T3
Cc1cc(C)cc(Nc2cc(C)nc3nc(C(F)(F)F)nn23)c1	-	no hit	no hit
CC(C)[C@H]1CN(Cc2cc(C3CC3)on2)C[C@@H]1NC(=O)CO	no hit	no hit	no hit

Calls as published in the ROBIN set (doi:10.1002/anie.202211358).